Assay results taken from paper PMC5041921.
These are yes or no findings as the source states them, for the method shown. Binding seen in cells or lysates may run through a third protein. Some binding calls cover weakened binding; strength is not graded here.

By UniProt entry, the sequences of proteins in these tests, tags left out. Residues count along the entry.
UniProt P03211, residues 379-641: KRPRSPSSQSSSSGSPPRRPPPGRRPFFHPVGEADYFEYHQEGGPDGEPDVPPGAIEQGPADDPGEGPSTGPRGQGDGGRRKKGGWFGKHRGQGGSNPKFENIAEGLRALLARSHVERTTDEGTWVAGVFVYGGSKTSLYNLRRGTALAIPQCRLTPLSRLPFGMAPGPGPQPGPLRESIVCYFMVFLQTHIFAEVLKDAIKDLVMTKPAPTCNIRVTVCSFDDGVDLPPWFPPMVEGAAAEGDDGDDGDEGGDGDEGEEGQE
UniProt P28482: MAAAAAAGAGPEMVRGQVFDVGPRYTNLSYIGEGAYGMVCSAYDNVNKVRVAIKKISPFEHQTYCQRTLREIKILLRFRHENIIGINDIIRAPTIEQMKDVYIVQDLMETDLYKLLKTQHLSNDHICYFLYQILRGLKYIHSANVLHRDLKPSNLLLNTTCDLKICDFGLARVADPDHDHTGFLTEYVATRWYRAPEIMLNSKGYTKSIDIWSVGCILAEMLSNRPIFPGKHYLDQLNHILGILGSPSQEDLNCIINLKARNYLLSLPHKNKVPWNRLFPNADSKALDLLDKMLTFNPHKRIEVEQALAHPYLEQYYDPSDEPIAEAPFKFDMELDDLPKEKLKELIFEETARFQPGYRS

Biological target: 6x histidine-tagged EBNA1 a.a. 379-641 WT (Epstein-Barr virus (Human herpesvirus 4)) (UniProt P03211)
Experiment: pull-down; only the target purified

## ERK2 (extracellular signal-regulated kinase 2) (from UniProt P28482 1-360) (enzyme)
  binding: binds
